Article PMC5249261

Key:
[1] = molecular target: T1, T7-Vps39 (mouse) (UniProt Q8R5L3); assay: co-IP; COS-7 cells co-transfected with T7-Vps39 or T7-Vps41 and a FLAG-tagged Rab; lysed two days later; immunoprecipitated with anti-T7 antibody; detected by immunoblots
T1 sequence: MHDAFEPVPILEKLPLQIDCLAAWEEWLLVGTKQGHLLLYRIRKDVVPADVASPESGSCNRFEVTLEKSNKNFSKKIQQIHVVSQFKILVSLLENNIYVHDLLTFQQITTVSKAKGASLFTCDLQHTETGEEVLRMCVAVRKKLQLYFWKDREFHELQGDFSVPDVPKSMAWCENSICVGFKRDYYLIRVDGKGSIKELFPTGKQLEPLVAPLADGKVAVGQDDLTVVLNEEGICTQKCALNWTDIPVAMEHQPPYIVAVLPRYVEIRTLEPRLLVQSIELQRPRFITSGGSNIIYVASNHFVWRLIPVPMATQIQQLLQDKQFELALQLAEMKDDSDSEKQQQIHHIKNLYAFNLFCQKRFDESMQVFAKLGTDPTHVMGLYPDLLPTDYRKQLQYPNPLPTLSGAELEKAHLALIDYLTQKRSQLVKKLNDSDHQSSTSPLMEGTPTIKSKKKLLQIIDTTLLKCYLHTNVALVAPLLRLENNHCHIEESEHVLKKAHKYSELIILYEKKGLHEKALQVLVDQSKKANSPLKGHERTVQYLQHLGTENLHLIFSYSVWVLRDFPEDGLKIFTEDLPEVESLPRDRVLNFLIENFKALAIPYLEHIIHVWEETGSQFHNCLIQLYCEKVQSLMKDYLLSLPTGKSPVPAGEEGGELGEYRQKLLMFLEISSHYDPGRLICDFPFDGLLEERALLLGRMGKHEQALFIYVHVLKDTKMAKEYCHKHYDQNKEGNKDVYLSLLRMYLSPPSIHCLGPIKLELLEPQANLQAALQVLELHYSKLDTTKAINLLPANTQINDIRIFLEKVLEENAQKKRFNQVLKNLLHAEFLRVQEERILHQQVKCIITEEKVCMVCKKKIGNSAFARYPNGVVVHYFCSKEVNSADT

[2] = molecular target: T2, T7-Vps41 (mouse) (UniProt Q5KU39); assay: as above
T2 sequence: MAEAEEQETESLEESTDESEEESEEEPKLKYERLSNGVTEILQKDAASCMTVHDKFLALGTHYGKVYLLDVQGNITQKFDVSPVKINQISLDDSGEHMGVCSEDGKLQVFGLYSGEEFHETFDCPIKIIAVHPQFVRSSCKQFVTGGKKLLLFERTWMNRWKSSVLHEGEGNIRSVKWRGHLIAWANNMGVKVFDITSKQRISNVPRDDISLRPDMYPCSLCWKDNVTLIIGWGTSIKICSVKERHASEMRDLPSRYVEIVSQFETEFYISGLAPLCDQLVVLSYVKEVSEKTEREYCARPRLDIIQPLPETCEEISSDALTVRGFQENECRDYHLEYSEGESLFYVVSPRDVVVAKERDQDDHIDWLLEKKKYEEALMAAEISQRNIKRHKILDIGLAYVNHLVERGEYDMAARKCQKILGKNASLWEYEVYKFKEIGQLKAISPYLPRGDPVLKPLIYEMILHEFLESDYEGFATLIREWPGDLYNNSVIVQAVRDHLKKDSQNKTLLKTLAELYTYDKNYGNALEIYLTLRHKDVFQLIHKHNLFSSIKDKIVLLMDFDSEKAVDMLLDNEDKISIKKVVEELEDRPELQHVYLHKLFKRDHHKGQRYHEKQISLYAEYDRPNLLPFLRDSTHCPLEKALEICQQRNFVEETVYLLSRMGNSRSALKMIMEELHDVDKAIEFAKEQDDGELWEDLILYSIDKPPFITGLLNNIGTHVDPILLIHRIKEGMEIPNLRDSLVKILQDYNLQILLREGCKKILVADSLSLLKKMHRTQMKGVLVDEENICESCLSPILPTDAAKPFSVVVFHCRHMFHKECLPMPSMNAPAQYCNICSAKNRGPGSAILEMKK

Row | Substance | binding [1] | binding [2]
1 | FLAG-tagged Rab5 (mouse) | no binding | no binding
2 | FLAG-tagged Rab7 (mouse) | – | binds

No constants are given. Whether binding was seen depends on the method and setting. In cells and extracts the contact can be indirect. For part of these data: Binding can be weak; no strength is given.
